Reference: publication PMC8828969, “Arylamine N-Acetyltransferase 1 Activity is Regulated by the Protein Acetylation Status” (Frontiers in Pharmacology, 2022)

Tests used:
Type in all cases: cell-based, human
NAT1 [1] = assay: NAT1 acetylation status (acetyl-lysine immunoprecipitation, AcNAT1/NAT1) in MDA-MB-231 cells; conditions: 48 h, vs vehicle
Protocol: (§1) In order to assess the acetylation status of NAT1 protein, MDA-MB-231(6 × 10^5) and ZR-75-1 (3 × 10^6) cells were seeded onto 100 mm cell culture dishes and allowed to attach overnight. The next day, cells were treated with either 10 µM or 100 µM of Sirtuin inhibitors (AGK2, EX527, Sirtinol), HDAC inhibitors (SAHA, TSA) or were transiently transfected with Sirt1 and Sirt2 SiRNA KD cocktail as described before. After 48-h drug treatment or 72-h siRNA transfection, cells were collected and lysed following the protocol of Signal-Seeker Acetyl-Lysine Detection kit (Citoskeleton, Denver, CO, United States). Briefly, after the incubation period concluded, cells were washed twice with PBS and lysed in ice-cold lysis buffer, 20 mM Tris-HCl (pH 7.4), 5 mM EDTA, 150 mM NaCl, 0.5% Triton X-100, 10 mM sodium butyrate and protease/phosphatase inhibitors cocktail. Cell lysates were incubated on ice for 20 min and isolated by centrifugation at 16,000 × g for 20 min. Supernatants were recovered and protein concentration was measured as described before. 150 µg of lysate was used for the IP; 1/10 of the sample was kept as input control. […] Densitometric analysis on the immunoblots was performed using ImageJ ([Schneider et al., 2012]) software or IMAGE STUDIO Lite software (LI-COR Biosciences, Lincoln, NE, United States), which enables quantitative analysis of blotting signals. […]

NAT1b transcript [2] = assay: NAT1b mRNA quantification by qRT-PCR in ZR-75-1 cells; conditions: 48 h, vs vehicle
Protocol: (§2) NAT1 mRNA levels were measured as described previously ([Millner et al., 2012]). Primers were designed to recognize only NAT1b expression. Briefly, total RNA was isolated cells lines using the RNeasy Mini kit (Qiagen, Hilden, GER) followed by removal of contaminating DNA by treatment with Turbo DNA-free (Ambion, Austin, TX, United States). cDNA was synthetized using the High-Capacity Reverse transcriptase kit (Life Technologies, Carlsbad, CA, United States) using 1 µg of total RNA in a 20 µL reaction following manufacturer’s instructions. Quantitative Reverse Transcription polymerase Chain Reaction (qRT-PCR) was used for the quantification of relative amount of NAT1, SIRT1 or SIRT2 mRNA in MDA-MB-231 and ZR-75-1 cells after drug treatment or siRNA KD assays. qRT-PCR reactions were done in the Step One Plus (Life Technologies, Carlsbad, CA, United States) containing 1 × final concentration of iTaq universal SYBR Green Supermix (Bio-Rad, Hercules, CA, United States) and 500 nm of each primer (Table 1) in a 20 µL reaction. β2-microglobulin (B2M) was used as housekeeping control to determine ΔCt (gene of interest Ct−B2M Ct ). ΔΔCt was determined by the subtraction of the smallest ΔCt and relative amounts of the gene of interest mRNA were calculated using 2^−ΔΔCt as previously described ([Barker et al., 2006]; [Salazar-Gonzalez et al., 2018b]). […]

NAT1 [3] = assay: NAT1 acetylation status (acetyl-lysine immunoprecipitation, AcNAT1/NAT1) in ZR-75-1 cells; conditions: 48 h, vs vehicle control
Protocol: as §1

NAT1b transcript [4] = assay: NAT1b message expression, MDA-MB-231 or ZR-75-1 cells (summary statements); conditions: both cell lines, 10 and 100 µM, 48 h
Protocol: as §2

KDAC proteins = assay: KDAC (Sirtuin / HDAC) activity, both breast cancer cell lines (discussion summary); conditions: MDA-MB-231 and ZR-75-1 cell lines
Text: Supernatant was recovered ant kept on ice.

## O=C(CCCCCCC(=O)Nc1ccccc1)NO [SAHA, Vorinostat]
NAT1 [1]; 10 µM
  NAT1 acetylation, fold increase: 1.45 fold
NAT1 [1]; 100 µM
  NAT1 acetylation, fold increase: 2 fold
NAT1b transcript [2]; 10 µM
  NAT1b transcript expression, fold increase: ~5 fold
NAT1b transcript [2]; 100 µM
  NAT1b transcript expression, fold increase: ~3 fold
NAT1 [3]; 10 µM
  NAT1 acetylation status, fold increase: 1.6 fold
NAT1 [3]; 100 µM
  NAT1 acetylation status, fold increase: 2.1 fold
NAT1b transcript [4]
  upregulation of NAT1b transcription, fold: 4-6 fold
KDAC proteins
  dose producing inhibition of KDAC enzymatic activity: 1 µM
